Results are given in words; binding and its absence hold for the method and conditions named. Binding seen in cells or lysates may run through a third protein. A yes stands for co-enrichment or nearness to the bait. Other partners may have been found. For some assays here: Where a sequence is shown, tags or fusion partners need not be part of it.

Assay [1] has as its target T1, EPRS-FLAG, P07814.
T1 chain: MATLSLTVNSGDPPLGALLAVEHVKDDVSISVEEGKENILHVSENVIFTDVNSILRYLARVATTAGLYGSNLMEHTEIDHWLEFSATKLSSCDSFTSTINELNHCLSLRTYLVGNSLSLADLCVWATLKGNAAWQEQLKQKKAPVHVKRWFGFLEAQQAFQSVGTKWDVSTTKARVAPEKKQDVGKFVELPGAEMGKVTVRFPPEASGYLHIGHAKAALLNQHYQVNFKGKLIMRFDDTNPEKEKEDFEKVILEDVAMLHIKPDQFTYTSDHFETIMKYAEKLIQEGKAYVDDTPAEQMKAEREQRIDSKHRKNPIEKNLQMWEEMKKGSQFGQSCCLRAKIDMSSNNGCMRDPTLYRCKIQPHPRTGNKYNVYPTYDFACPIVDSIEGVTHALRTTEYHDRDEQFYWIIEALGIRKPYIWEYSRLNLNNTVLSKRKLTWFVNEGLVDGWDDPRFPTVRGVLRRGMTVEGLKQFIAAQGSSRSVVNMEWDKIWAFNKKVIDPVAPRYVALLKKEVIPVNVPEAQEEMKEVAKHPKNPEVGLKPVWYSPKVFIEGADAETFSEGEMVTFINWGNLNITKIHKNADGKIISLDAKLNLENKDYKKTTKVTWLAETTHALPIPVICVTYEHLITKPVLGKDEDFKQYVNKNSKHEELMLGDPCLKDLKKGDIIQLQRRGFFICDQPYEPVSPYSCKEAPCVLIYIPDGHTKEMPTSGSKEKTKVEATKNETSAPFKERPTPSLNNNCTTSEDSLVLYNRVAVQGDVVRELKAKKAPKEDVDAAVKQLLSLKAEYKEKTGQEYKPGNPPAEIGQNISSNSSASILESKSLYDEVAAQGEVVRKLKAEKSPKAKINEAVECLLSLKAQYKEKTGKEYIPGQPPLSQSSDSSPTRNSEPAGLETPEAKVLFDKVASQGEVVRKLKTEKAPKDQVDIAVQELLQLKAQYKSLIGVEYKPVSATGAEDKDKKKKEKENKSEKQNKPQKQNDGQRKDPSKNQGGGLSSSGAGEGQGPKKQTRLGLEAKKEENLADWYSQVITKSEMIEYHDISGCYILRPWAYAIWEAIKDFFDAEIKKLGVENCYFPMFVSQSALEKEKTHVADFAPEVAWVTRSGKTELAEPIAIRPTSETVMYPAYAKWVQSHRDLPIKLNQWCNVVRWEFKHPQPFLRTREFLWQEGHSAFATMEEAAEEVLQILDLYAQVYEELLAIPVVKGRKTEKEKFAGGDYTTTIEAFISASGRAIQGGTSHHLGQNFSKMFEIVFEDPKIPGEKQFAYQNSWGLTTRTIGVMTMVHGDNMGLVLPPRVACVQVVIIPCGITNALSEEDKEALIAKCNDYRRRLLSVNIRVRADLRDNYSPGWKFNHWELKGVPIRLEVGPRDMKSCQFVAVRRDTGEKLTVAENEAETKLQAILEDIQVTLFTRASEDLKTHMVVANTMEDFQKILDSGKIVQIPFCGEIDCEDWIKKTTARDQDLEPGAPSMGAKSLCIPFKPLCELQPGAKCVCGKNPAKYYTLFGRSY
The assay is described as follows: affinity purification with mass spectrometry; FLAG eluates from HeLa-S3-FlpIn ± EPRSf or HeLa-S3-FlpIn-BCDIN3D-KO ± EPRSf analysed by LC-MS/MS; co-IP buffer with 150 mM NaCl, 0.1% NP-40, 4 °C. Particulars: remark: other sources report otherwise.

Assay [2] addresses EPRS-FLAG (UniProt P07814). The description is as above.

B1: MARS (methionyl tRNA synthetase), endogenous, P56192 1-900 (protein)
chain: MRLFVSDGVPGCLPVLAAAGRARGRAEVLISTVGPEDCVVPFLTRPKVPVLQLDSGNYLFSTSAICRYFFLLSGWEQDDLTNQWLEWEATELQPALSAALYYLVVQGKKGEDVLGSVRRALTHIDHSLSRQNCPFLAGETESLADIVLWGALYPLLQDPAYLPEELSALHSWFQTLSTQEPCQRAAETVLKQQGVLALRPYLQKQPQPSPAEGRAVTNEPEEEELATLSEEEIAMAVTAWEKGLESLPPLRPQQNPVLPVAGERNVLITSALPYVNNVPHLGNIIGCVLSADVFARYSRLRQWNTLYLCGTDEYGTATETKALEEGLTPQEICDKYHIIHADIYRWFNISFDIFGRTTTPQQTKITQDIFQQLLKRGFVLQDTVEQLRCEHCARFLADRFVEGVCPFCGYEEARGDQCDKCGKLINAVELKKPQCKVCRSCPVVQSSQHLFLDLPKLEKRLEEWLGRTLPGSDWTPNAQFITRSWLRDGLKPRCITRDLKWGTPVPLEGFEDKVFYVWFDATIGYLSITANYTDQWERWWKNPEQVDLYQFMAKDNVPFHSLVFPCSALGAEDNYTLVSHLIATEYLNYEDGKFSKSRGVGVFGDMAQDTGIPADIWRFYLLYIRPEGQDSAFSWTDLLLKNNSELLNNLGNFINRAGMFVSKFFGGYVPEMVLTPDDQRLLAHVTLELQHYHQLLEKVRIRDALRSILTISRHGNQYIQVNEPWKRIKGSEADRQRAGTVTGLAVNIAALLSVMLQPYMPTVSATIQAQLQLPPPACSILLTNFLCTLPAGHQIGTVSPLFQKLENDQIESLRQRFGGGQAKTSPKPAVVETVTTAKPQQIQALMDEVTKQGNIVRELKAQKADKNEVAAEVAKLLDLKKQLAVAEGKPPEAPKGKKKK
As for B1, the binding entry in assay [1] is “binds”.

B2: AIMP2 (protein, UniProt Q13155 1-320)
chain: MPMYQVKPYHGGGAPLRVELPTCMYRLPNVHGRSYGPAPGAGHVQEESNLSLQALESRQDDILKRLYELKAAVDGLSKMIQTPDADLDVTNIIQADEPTTLTTNALDLNSVLGKDYGALKDIVINANPASPPLSLLVLHRLLCEHFRVLSTVHTHSSVKSVPENLLKCFGEQNKKQPRQDYQLGFTLIWKNVPKTQMKFSIQTMCPIEGEGNIARFLFSLFGQKHNAVNATLIDSWVDIAIFQLKEGSSKEKAAVFRSMNSALGKSPWLAGNELTVADVVLWSVLQQIGGCSVTVPANVQRWMRSCENLAPFNTALKLLK
For B2, the binding entry in assay [2] was “binds”.

These data come from paper PMC10933402.
